# Laboratory results from paper PMC3514159.
# Protein sequences, listed by entry. Tags and fused reporters are not part of them.
# UniProt P09022: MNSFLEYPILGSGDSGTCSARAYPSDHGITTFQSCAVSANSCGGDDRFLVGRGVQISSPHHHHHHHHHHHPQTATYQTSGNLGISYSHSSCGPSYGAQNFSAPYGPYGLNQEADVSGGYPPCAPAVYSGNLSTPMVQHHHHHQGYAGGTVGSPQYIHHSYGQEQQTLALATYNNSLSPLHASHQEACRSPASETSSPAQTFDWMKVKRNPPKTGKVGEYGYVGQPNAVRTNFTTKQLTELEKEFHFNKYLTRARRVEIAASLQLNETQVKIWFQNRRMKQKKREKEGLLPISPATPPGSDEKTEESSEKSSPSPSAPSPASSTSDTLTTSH
# No constants are given. Whether binding was seen depends on the method and setting. For some of these results: In cells and extracts the contact can be indirect. Some entries that bind do so weakly or less than the wild type.
# B1: phospholipid scramblase 4 (protein, UniProt Q9NRQ2 1-329)
# chain: MSGVVPTAPEQPAGEMENQTKPPDPRPDAPPEYNSHFLPGPPGTAVPPPTGYPGGLPMGYYSPQQPSTFPLYQPVGGIHPVRYQPGKYPMPNQSVPITWMPGPTPMANCPPGLEYLVQLDNIHVLQHFEPLEMMTCFETNNRYDIKNNSDQMVYIVTEDTDDFTRNAYRTLRPFVLRVTDCMGREIMTMQRPFRCTCCCFCCPSARQELEVQCPPGVTIGFVAEHWNLCRAVYSIQNEKKENVMRVRGPCSTYGCGSDSVFEVKSLDGISNIGSIIRKWNGLLSAMADADHFDIHFPLDLDVKMKAMIFGACFLIDFMYFERSPPQRSR
# B2: PR domain containing 14 (protein, UniProt Q9GZV8 1-571)
# chain: MALPRPSEAVPQDKVCYPPESSPQNLAAYYTPFPSYGHYRNSLATVEEDFQPFRQLEAAASAAPAMPPFPFRMAPPLLSPGLGLQREPLYDLPWYSKLPPWYPIPHVPREVPPFLSSSHEYAGASSEDLGHQIIGGDNESGPCCGPDTLIPPPPADASLLPEGLRTSQLLPCSPSKQSEDGPKPSNQEGKSPARFQFTEEDLHFVLYGVTPSLEHPASLHHAISGLLVPPDSSGSDSLPQTLDKDSLQLPEGLCLMQTVFGEVPHFGVFCSSFIAKGVRFGPFQGKVVNASEVKTYGDNSVMWEIFEDGHLSHFIDGKGGTGNWMSYVNCARFPKEQNLVAVQCQGHIFYESCKEIHQNQELLVWYGDCYEKFLDIPVSLQVTEPGKQPSGPSEESAEGYRCERCGKVFTYKYYRDKHLKYTPCVDKGDRKFPCSLCKRSFEKRDRLRIHILHVHEKHRPHKCSTCGKCFSQSSSLNKHMRVHSGDRPYQCVYCTKRFTASSILRTHIRQHSGEKPFKCKYCGKSFASHAAHDSHVRRSHKEDDGCSCSICGKIFSDQETFYSHMKFHEDY
# B3: regulator of G-protein signaling 20 (protein, UniProt O76081 1-388)
# chain: MPQLSQDNQECLQKHFSRPSIWTQFLPLFRAQRYNTDIHQITENEGDLRAVPDIKSFPPAQLPDSPAAPKLFGLLSSPLSSLARFFSHLLRRPPPEAPRRRLDFSPLLPALPAARLSRGHEELPGRLSLLLGAALALPGRPSGGRPLRPPHPVAKPREEDATAGQSSPMPQMGSERMEMRKRQMPAAQDTPGAAPGQPGAGSRGSNACCFCWCCCCSCSCLTVRNQEDQRPTIASHELRADLPTWEESPAPTLEEVNAWAQSFDKLMVTPAGRNAFREFLRTEFSEENMLFWMACEELKKEANKNIIEEKARIIYEDYISILSPKEVSLDSRVREVINRNMVEPSQHIFDDAQLQIYTLMHRDSYPRFMNSAVYKDLLQSLSEKSIEA
# B4: sprouty homolog 1 (protein, UniProt O43609 1-319)
# chain: MDPQNQHGSGSSLVVIQQPSLDSRQRLDYEREIQPTAILSLDQIKAIRGSNEYTEGPSVVKRPAPRTAPRQEKHERTHEIIPINVNNNYEHRHTSHLGHAVLPSNARGPILSRSTSTGSAASSGSNSSASSEQGLLGRSPPTRPVPGHRSERAIRTQPKQLIVDDLKGSLKEDLTQHKFICEQCGKCKCGECTAPRTLPSCLACNRQCLCSAESMVEYGTCMCLVKGIFYHCSNDDEGDSYSDNPCSCSQSHCCSRYLCMGAMSLFLPCLLCYPPAKGCLKLCRRCYDWIHRPGCRCKNSNTVYCKLESCPSRGQGKPS
# B5: TNF receptor-associated factor 1 (protein, UniProt Q13077 1-416)
# chain: MASSSGSSPRPAPDENEFPFGCPPTVCQDPKEPRALCCAGCLSENPRNGEDQICPKCRGEDLQSISPGSRLRTQEKAHPEVAEAGIGCPFAGVGCSFKGSPQSVQEHEVTSQTSHLNLLLGFMKQWKARLGCGLESGPMALEQNLSDLQLQAAVEVAGDLEVDCYRAPCSESQEELALQHFMKEKLLAELEGKLRVFENIVAVLNKEVEASHLALATSIHQSQLDRERILSLEQRVVELQQTLAQKDQALGKLEQSLRLMEEASFDGTFLWKITNVTRRCHESACGRTVSLFSPAFYTAKYGYKLCLRLYLNGDGTGKRTHLSLFIVIMRGEYDALLPWPFRNKVTFMLLDQNNREHAIDAFRPDLSSASFQRPQSETNVASGCPLFFPLSKLQSPKHAYVKDDTMFLKCIVETST
# Molecular target: VC155-Hoxa1 (mouse) (UniProt P09022)
# Experiment: split reporter; BiFC in transfected MCF10A cells: VN173-hORF with VC155-Hoxa1; fixed 24 h after transfection, confocal microscopy
row,Binder,binding
1,B1,binds
2,B2,binds
3,B3,binds
4,B4,binds
5,B5,binds

# Molecular target: Hoxa1 (mouse) (UniProt P09022)
# Experiment: two-hybrid; DB-Hoxa1 (Gal4 DNA binding domain) in MATα Y8930 mated with the AD-hORF library (human ORFeome v3.1) in MATa Y8800; 30°C; selection on Sc-L-T-H + 1 mM 3AT, retest on Sc-L-T-H, Sc-L-T-A and Sc-L-T-H-A+3AT
row,Binder,binding
1,B1,binds
2,B2,binds
3,B3,binds
4,B4,binds
5,B5,binds
